Reference: paper PMC8788068
These are yes or no findings as the source states them, for the method shown. In cells and extracts the contact can be indirect. Some results given as binding are weak or reduced against the parent protein; the word gives no strength.

Amino acid sequences for entries named in this document (tags omitted).
UniProt P15924: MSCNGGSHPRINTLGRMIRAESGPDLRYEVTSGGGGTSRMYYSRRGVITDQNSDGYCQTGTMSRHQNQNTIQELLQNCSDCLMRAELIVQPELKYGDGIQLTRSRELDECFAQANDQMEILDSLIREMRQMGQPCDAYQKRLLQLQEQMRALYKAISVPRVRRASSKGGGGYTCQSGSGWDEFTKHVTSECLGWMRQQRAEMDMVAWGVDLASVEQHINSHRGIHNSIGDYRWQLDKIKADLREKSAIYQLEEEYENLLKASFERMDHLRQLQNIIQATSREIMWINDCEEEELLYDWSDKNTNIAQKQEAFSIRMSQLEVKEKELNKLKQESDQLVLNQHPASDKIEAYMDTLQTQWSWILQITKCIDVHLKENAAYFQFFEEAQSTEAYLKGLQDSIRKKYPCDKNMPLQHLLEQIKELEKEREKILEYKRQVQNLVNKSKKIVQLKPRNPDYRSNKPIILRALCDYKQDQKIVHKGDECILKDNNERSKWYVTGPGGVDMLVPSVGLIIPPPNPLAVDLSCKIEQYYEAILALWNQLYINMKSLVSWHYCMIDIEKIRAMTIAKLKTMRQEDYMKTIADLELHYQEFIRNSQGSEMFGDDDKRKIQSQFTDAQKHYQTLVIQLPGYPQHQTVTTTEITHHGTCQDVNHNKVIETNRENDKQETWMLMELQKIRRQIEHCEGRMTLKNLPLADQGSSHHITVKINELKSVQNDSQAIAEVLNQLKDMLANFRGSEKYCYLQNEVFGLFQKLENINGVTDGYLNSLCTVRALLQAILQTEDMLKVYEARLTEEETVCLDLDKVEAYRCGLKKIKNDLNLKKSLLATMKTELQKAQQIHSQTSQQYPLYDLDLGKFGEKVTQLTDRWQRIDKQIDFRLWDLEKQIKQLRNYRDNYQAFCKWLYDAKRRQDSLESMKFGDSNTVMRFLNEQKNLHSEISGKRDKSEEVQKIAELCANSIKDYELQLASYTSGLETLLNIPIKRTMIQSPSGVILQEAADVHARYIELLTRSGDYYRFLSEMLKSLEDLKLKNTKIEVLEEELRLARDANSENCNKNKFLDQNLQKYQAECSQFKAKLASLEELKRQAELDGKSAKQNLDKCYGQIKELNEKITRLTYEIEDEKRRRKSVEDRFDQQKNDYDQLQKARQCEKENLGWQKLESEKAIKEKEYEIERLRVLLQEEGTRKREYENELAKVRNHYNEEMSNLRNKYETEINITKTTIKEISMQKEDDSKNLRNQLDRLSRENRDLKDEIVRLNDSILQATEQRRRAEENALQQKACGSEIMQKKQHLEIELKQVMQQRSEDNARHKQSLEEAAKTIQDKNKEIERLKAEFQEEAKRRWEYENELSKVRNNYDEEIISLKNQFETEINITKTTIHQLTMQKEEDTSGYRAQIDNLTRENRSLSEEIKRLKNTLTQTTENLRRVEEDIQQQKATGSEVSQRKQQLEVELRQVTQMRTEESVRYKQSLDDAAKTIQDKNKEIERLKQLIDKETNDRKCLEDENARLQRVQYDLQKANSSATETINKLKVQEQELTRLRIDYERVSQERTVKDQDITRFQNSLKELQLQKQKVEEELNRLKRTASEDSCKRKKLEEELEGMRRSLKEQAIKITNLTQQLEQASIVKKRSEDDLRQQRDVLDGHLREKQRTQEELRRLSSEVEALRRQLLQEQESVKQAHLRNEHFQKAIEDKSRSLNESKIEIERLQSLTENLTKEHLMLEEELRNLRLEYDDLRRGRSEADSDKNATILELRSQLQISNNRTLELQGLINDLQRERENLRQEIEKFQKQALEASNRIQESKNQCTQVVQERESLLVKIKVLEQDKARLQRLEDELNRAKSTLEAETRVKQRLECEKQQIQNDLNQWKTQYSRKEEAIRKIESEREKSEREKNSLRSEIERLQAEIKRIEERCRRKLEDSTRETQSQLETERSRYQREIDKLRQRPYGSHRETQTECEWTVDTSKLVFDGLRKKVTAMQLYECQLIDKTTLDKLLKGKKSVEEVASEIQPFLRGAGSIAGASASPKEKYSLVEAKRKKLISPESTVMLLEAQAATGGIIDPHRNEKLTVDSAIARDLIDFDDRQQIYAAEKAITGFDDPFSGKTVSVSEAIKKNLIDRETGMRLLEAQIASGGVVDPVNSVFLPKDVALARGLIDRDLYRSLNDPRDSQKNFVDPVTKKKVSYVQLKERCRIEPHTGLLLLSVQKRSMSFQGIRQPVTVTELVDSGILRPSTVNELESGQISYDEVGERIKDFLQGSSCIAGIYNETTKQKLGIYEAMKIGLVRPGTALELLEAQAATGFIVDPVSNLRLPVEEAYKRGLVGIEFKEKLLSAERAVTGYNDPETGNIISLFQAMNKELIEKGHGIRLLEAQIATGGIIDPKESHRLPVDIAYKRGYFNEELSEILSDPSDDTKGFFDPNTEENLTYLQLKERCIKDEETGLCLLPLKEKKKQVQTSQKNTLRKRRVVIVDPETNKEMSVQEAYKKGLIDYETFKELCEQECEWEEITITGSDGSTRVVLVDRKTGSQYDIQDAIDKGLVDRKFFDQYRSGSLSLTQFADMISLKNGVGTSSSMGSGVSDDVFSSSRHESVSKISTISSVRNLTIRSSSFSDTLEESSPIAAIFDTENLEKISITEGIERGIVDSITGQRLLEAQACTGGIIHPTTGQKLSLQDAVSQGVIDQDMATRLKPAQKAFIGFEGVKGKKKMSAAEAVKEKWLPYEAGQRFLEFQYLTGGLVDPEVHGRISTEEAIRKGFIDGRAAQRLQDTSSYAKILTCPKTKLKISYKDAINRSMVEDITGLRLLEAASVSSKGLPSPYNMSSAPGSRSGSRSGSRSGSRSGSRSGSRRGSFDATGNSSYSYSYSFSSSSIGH

What was measured:
Experiment in all cases: co-IP; lysates of MCF7-KRT13 and HCC1954-shKRT13 cells; immunoprecipitation with anti-KRT13, anti-PG or anti-DSP antibody, Protein A/G PLUS-Agarose, 4 °C overnight, rinsed four times with cell lysis buffer; western blot
[1] = biological target: T1, plakoglobin (PG, γ-catenin) (human (endogenous in MCF7 and HCC1954)) (UniProt P14923)
T1 sequence: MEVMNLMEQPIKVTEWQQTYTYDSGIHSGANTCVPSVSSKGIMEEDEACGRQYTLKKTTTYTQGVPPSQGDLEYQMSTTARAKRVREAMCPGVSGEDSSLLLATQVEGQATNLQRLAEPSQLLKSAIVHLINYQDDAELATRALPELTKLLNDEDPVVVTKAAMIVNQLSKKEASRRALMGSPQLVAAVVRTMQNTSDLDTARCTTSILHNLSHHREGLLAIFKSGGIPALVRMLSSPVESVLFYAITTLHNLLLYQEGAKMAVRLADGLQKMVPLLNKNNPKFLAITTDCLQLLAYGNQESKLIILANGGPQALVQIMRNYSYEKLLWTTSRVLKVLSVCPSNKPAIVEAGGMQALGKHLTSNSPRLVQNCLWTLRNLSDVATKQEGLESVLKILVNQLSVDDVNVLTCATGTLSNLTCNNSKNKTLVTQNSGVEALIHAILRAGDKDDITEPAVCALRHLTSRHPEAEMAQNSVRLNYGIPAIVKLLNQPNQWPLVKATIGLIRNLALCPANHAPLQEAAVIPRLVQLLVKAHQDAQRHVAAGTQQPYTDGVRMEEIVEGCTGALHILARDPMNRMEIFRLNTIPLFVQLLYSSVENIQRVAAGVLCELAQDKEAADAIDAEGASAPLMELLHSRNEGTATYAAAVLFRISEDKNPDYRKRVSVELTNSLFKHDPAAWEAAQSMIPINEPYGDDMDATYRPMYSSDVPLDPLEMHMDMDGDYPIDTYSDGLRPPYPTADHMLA

[2] = biological target: T2, Keratin 13 (KRT13), endogenous in HCC1954 cells (human (endogenous in HCC1954)) (UniProt P13646)
T2 sequence: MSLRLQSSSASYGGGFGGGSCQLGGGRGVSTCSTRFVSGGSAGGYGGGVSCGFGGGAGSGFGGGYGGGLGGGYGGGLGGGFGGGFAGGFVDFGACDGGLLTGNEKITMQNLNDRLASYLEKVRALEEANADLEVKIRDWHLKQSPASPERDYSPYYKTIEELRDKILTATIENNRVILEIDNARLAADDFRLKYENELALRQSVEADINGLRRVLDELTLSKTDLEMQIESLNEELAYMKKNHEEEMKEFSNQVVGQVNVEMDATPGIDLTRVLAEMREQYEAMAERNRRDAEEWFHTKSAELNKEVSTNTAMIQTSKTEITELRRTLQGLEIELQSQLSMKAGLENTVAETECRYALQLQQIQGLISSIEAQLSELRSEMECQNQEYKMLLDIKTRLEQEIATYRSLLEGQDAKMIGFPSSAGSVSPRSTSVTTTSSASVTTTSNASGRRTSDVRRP

[3] = biological target: T3, Keratin 13 (KRT13), overexpressed in MCF7 cells (MCF7-KRT13) (human) (UniProt P13646)
T3 sequence: T2 sequence

Measured: binding

desmoplakin (DSP) (from UniProt P15924 1-2871)
binds: [1] | [2] | [3]
